The results in this text go back to PMC8852700.

Sequences of proteins named here, by UniProt entry; tags and fusion partners are left off. A change or cut given only in a name is not applied to a line headed by its entry.
UniProt Q54841: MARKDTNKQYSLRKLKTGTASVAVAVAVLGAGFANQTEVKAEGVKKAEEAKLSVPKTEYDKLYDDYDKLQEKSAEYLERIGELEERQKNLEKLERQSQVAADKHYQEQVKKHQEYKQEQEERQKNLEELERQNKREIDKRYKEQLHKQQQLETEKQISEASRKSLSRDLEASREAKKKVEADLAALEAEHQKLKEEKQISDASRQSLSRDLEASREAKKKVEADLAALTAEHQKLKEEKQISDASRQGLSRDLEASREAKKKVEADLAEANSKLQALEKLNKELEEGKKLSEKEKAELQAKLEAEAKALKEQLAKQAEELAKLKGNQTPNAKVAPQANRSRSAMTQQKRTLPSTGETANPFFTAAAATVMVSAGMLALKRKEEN
UniProt P02671: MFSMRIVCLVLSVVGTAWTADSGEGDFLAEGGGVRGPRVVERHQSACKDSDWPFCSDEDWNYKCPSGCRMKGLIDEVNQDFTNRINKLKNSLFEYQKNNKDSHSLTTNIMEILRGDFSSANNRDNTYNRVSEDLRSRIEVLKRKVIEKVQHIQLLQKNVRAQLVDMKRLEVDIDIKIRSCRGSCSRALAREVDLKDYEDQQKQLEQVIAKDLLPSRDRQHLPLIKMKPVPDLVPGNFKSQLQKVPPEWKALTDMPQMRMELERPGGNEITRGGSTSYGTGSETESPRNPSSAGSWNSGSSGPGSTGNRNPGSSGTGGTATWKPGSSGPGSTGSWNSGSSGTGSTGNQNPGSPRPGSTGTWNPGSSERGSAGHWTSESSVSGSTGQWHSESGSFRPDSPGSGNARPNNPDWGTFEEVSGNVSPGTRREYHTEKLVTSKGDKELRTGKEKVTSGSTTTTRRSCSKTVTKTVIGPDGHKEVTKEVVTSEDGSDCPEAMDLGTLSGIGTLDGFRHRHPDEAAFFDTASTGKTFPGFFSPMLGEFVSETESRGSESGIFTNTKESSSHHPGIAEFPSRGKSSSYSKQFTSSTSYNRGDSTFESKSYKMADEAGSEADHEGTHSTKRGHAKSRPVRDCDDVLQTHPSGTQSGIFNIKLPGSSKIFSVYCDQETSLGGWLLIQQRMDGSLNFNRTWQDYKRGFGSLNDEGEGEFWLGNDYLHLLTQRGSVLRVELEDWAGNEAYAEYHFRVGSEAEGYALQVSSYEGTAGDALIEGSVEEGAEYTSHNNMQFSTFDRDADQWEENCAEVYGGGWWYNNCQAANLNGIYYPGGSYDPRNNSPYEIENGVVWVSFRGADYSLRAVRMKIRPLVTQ

Experiment in all cases: far-Western, overlay or dot blot; M proteins (25 ug/mL) run on a gel and transferred to a membrane, blocked with 5% BSA in PBST; probed with human fibrinogen (250 ug/mL) for 1 h at 37 C; detected with FITC-labeled antifibrinogen; both purified
For experiment [1], the target named is M89 protein (Streptococcus pyogenes) (UniProt Q54841).
Experiment [2] deals with M3 protein (Streptococcus pyogenes) (UniProt Q54841).
Experiment [3] has as its target M1 protein (Streptococcus pyogenes) (UniProt Q99XV0).
The target of experiment [4] is M28 protein (Streptococcus pyogenes) (UniProt Q54841).

No constants are given. Whether binding was seen depends on the method and setting. For some of these results: Binding can be weak; no strength is given.

Turning to “human fibrinogen (from UniProt P02671 36-866; P02675 45-491; P02679 27-453)”, the binding result in experiment [1] is “no binding (tested: 250 ug/mL fibrinogen)”; in experiment [2], “binds”; in experiment [3] it was “binds”; in experiment [4] it was “no binding (tested: 250 ug/mL fibrinogen)”.
